# Source: the supplement of paper PMC7889204
# Structures can show the parent of a compound that is named as a salt. This is one part of the list. Most values come without repeats; read them as rough.
# Test system: C6
# Assay: cell mass (Coomassie absorbance) after combination of library compound with HMBA, relative to vehicle control (fraction); higher = more remaining cells (less growth inhibition)
row,Structure (SMILES),cell mass
1,CC(C)n1nc(-c2cc3cc(O)ccc3[nH]2)c2c(N)ncnc21 + CC(=O)NCCCCCCNC(C)=O [hexamethylene bisacetamide],1.04
2,CCc1cccc2c3c([nH]c12)[C@](CC)(CC(=O)O)OCC3 [Etodolac(Lodine)] + CC(=O)NCCCCCCNC(C)=O [hexamethylene bisacetamide],0.511
3,O=C(Nc1cccc(Cl)c1)Nc1ncc(CCNc2ncnc3ccsc23)s1 [SNS-314 Mesylate] + CC(=O)NCCCCCCNC(C)=O [hexamethylene bisacetamide],0.308
4,CCCS(=O)(=O)Nc1ccc(F)c(C(=O)c2c[nH]c3ncc(Cl)cc23)c1F + CC(=O)NCCCCCCNC(C)=O [hexamethylene bisacetamide],0.312
5,Cc1cnc(NC(=O)Nc2cc(Br)c(C)cc2OC[C@@H]2CNCCO2)cn1 + CC(=O)NCCCCCCNC(C)=O [hexamethylene bisacetamide],0.453
6,CN(c1ncccc1CNc1nc(Nc2ccc3c(c2)CC(=O)N3)ncc1C(F)(F)F)S(C)(=O)=O + CC(=O)NCCCCCCNC(C)=O [hexamethylene bisacetamide],0.69
7,S=C(NCc1ccc2c(c1)OCO2)N1CCN(c2ncnc3c2oc2ccccc23)CC1 + CC(=O)NCCCCCCNC(C)=O [hexamethylene bisacetamide],0.0811
8,Fc1cc(-c2cccc3ncc(-c4cnn(C5CCNCC5)c4)nc23)cc(F)c1CN1CCOCC1 + CC(=O)NCCCCCCNC(C)=O [hexamethylene bisacetamide],0.55
9,c1cncc(CN2CCC(n3ncc4c(N5CCOCC5)nc(-c5ccc6[nH]ccc6c5)nc43)CC2)c1 + CC(=O)NCCCCCCNC(C)=O [hexamethylene bisacetamide],0.5
10,CC[C@H](CO)Nc1nc(NCc2ccccc2)c2cnn(C(C)C)c2n1 [Roscovitine(CYC202)] + CC(=O)NCCCCCCNC(C)=O [hexamethylene bisacetamide],0.541
11,COc1ccc2[nH]c([S@@+]([O-])Cc3ncc(C)c(OC)c3C)nc2c1 [Esomeprazole sodium] + CC(=O)NCCCCCCNC(C)=O [hexamethylene bisacetamide],0.776
12,CN(CCOc1ccc(CC2SC(=O)NC2=O)cc1)c1ccccn1 (stereo unspecified) [Rosiglitazone] + CC(=O)NCCCCCCNC(C)=O [hexamethylene bisacetamide],0.474
13,CCCCc1nc2cc(/C=C/C(=O)NO)ccc2n1CCN(CC)CC + CC(=O)NCCCCCCNC(C)=O [hexamethylene bisacetamide],0.216
14,O=C(Nc1ccc(OC(F)(F)F)cc1)c1sccc1NCc1ccnc2ccccc12 + CC(=O)NCCCCCCNC(C)=O [hexamethylene bisacetamide],0.349
15,CCC1=C[C@@H]2CN(C1)Cc1c([nH]c3ccccc13)[C@@](C(=O)OC)(c1cc3c(cc1OC)N(C)[C@H]1[C@@](O)(C(=O)OC)[C@H](OC(C)=O)[C@]4(CC)C=CCN5CC[C@@]31[C@H]54)C2 [Vinorelbine(Navelbine)] + CC(=O)NCCCCCCNC(C)=O [hexamethylene bisacetamide],0.292
16,CN(C)Cc1cccc(N/C(=C2\C(=O)Nc3cc(C(N)=O)ccc32)c2ccccc2)c1 + CC(=O)NCCCCCCNC(C)=O [hexamethylene bisacetamide],0.797
17,C=CCn1c(=O)c2cnc(Nc3ccc(N4CCN(C)CC4)cc3)nc2n1-c1cccc(C(C)(C)O)n1 + CC(=O)NCCCCCCNC(C)=O [hexamethylene bisacetamide],0.583
18,CNC(=O)c1cc(COc2nnc(Nc3ccc(Cl)cc3)c3ccoc23)ccn1 [Telatinib] + CC(=O)NCCCCCCNC(C)=O [hexamethylene bisacetamide],0.98
19,CC(=O)O[C@]1(C(C)=O)CC[C@H]2[C@@H]3C=C(C)C4=CC(=O)CC[C@]4(C)[C@H]3CC[C@@]21C [Megestrol Acetate] + CC(=O)NCCCCCCNC(C)=O [hexamethylene bisacetamide],0.491
20,CN(C)Cc1ccc(-c2nc3cccc4c3n2CCNC4=O)cc1 + CC(=O)NCCCCCCNC(C)=O [hexamethylene bisacetamide],0.489
21,O=c1c(-c2ccc(O)cc2)coc2cc(O)cc(O)c12 [Genistein] + CC(=O)NCCCCCCNC(C)=O [hexamethylene bisacetamide],0.57

# Quoted at random: two entries already listed, in no set order.
row,Structure (SMILES),cell mass
16,CN(C)Cc1cccc(N/C(=C2\C(=O)Nc3cc(C(N)=O)ccc32)c2ccccc2)c1 + CC(=O)NCCCCCCNC(C)=O [hexamethylene bisacetamide],0.797
1,CC(C)n1nc(-c2cc3cc(O)ccc3[nH]2)c2c(N)ncnc21 + CC(=O)NCCCCCCNC(C)=O [hexamethylene bisacetamide],1.04
